The values that follow come from PMC4465499.

Sequences of proteins named here, by UniProt entry; tags and fusion partners are left off.
UniProt P38398: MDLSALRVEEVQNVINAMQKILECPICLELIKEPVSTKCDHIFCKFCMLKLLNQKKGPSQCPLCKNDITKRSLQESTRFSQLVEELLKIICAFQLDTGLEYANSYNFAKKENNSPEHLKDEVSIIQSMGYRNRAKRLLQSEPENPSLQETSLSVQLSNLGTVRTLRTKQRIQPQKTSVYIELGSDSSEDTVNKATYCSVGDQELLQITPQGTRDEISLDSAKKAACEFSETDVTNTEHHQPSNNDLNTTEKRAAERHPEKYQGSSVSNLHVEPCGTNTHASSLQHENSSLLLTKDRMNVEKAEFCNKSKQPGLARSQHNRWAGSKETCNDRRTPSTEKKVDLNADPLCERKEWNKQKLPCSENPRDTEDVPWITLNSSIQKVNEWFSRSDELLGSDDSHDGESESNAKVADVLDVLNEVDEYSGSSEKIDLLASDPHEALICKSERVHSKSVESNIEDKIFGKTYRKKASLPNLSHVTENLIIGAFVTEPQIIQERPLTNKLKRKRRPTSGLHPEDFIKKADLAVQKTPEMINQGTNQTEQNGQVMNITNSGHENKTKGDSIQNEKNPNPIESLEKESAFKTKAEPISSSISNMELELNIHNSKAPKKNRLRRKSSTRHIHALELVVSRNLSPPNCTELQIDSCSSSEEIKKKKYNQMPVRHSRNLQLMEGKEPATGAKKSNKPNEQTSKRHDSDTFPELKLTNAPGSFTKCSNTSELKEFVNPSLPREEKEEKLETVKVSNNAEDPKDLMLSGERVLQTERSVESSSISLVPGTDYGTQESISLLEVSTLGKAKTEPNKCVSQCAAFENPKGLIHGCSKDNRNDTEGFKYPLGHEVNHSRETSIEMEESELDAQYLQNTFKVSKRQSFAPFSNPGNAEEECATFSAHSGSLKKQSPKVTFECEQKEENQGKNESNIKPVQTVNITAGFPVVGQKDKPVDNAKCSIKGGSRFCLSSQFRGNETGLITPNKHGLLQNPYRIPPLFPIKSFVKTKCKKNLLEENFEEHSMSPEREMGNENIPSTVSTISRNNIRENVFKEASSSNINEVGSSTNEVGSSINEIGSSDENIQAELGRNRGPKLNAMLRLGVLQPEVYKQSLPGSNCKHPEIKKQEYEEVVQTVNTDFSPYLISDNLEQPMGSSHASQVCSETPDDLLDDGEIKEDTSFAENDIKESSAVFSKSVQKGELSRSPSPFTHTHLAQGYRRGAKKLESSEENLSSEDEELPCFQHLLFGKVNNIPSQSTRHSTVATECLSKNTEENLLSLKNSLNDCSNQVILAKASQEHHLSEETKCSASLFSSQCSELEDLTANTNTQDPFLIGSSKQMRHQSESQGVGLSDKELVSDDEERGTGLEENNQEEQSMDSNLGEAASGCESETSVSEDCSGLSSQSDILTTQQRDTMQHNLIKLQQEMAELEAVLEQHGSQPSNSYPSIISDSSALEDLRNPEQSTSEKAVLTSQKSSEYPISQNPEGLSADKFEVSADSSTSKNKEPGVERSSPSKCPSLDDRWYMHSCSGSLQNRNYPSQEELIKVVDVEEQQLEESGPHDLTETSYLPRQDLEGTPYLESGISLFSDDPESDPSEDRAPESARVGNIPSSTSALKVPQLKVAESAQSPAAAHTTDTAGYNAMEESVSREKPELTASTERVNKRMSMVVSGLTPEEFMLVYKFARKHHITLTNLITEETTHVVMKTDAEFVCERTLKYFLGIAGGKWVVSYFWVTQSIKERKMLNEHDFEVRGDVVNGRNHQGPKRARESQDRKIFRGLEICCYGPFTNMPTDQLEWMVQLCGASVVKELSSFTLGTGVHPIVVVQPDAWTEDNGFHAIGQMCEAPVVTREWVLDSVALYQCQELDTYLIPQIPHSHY

The target of the assay is BRCA1 (human (endogenous in MCF-7)) (UniProt P38398). As to the kind of experiment: co-IP; endogenous BRCA1 precipitated from total cell extract (MCF-7 or HCC1937) with anti-BRCA1 monoclonal antibody overnight, Protein A/G PLUS-Agarose 2 h at 4 C, three washes in lysis buffer (20 mM NaCl, 30 mM KCl, 0.1% DTT, 0.5% Triton X-100); immunoblot with anti-ATF1. On the technique in general: Immunoblotting shows a protein as a band on a membrane.

These are yes or no findings as the source states them, for the method shown. In cells and extracts the contact can be indirect. Some entries that bind do so weakly or less than the wild type.

B1: cyclic AMP-dependent transcription factor ATF1 (protein, UniProt P18846 1-271)
chain: MEDSHKSTTSETAPQPGSAVQGAHISHIAQQVSSLSESEESQDSSDSIGSSQKAHGILARRPSYRKILKDLSSEDTRGRKGDGENSGVSAAVTSMSVPTPIYQTSSGQYIAIAPNGALQLASPGTDGVQGLQTLTMTNSGSTQQGTTILQYAQTSDGQQILVPSNQVVVQTASGDMQTYQIRTTPSATSLPQTVVMTSPVTLTSQTTKTDDPQLKREIRLMKNREAARECRRKKKEYVKCLENRVAVLENQNKTLIEELKTLKDLYSNKSV
On to B1, for which the binding result is reported as “binds”.
